These are yes or no findings as the source states them, for the method shown. In cells and extracts the contact can be indirect. Some binding calls cover weakened binding; strength is not graded here.
Molecular target: Macrophage migration inhibitory factor (UniProt P30904)
Experiment: co-IP; lysates (500 μg) of rat primary joint capsule fibroblasts treated with 2 μg/mL MIF for 24 h; precleared with protein A plus G-Sepharose, incubated with anti-MIF or anti-CD74 antibody at 4 °C, immunoblot with anti-MIF or anti-CD74

Sequences of proteins named here, by UniProt entry; tags and fusion partners are left off.
UniProt P30904: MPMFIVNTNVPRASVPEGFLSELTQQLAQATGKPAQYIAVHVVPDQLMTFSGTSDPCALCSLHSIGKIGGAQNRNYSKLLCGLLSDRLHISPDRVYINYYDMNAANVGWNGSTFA

B1: CD74 membrane receptor (receptor, UniProt P10247 1-280)
chain: MDDQRDLISNHEQLPILGQRARAPESNCNRGVLYTSVSVLVALLLAGQATTAYFLYQQQGRLDKLTVTSQNLQLENLRMKLPKSAKPVSPMRMATPLLMRPLSMDNMLQAPVKNVTKYGNMTQDHVMHLLTKSGPVNYPQLKGSFPENLKHLKNSMNGLDWKVFESWMKQWLLFEMSKNSLEEKQPTQTPPKVLTKCQEEVSHIPDVHPGAFRPKCDENGNYMPLQCHGSTGYCWCVFPNGTEVPHTKSRGRHNCSEPLDMEDPSSGLGVTKQDMGQMFL
- binding: binds
